PMC8139649
Results are given in words; binding and its absence hold for the method and conditions named. Binding seen in cells or lysates may run through a third protein. Some results given as binding are weak or reduced against the parent protein; the word gives no strength.

Chains of the proteins cited; added tags and fusions are not shown.
UniProt Q13227: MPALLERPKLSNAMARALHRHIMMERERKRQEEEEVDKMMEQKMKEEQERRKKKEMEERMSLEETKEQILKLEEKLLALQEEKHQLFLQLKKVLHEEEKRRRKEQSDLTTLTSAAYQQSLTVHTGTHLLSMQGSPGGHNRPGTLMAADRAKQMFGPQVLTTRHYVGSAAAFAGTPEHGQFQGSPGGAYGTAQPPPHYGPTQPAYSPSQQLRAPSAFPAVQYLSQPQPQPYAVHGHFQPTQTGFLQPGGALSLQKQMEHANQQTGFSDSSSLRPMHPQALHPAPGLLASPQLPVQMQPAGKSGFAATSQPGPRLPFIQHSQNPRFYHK
UniProt P15682: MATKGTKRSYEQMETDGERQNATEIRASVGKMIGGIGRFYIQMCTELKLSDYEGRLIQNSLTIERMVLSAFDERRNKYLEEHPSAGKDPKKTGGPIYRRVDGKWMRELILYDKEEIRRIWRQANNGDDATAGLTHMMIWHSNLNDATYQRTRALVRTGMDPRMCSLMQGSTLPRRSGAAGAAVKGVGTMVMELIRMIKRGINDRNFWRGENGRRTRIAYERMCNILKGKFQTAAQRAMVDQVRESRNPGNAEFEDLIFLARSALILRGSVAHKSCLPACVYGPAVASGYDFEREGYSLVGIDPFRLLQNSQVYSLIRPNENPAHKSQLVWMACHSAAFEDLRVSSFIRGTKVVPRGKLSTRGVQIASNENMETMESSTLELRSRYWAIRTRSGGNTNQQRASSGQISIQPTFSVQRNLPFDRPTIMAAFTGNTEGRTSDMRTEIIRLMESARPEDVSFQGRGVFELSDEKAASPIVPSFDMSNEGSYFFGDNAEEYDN
UniProt P03430: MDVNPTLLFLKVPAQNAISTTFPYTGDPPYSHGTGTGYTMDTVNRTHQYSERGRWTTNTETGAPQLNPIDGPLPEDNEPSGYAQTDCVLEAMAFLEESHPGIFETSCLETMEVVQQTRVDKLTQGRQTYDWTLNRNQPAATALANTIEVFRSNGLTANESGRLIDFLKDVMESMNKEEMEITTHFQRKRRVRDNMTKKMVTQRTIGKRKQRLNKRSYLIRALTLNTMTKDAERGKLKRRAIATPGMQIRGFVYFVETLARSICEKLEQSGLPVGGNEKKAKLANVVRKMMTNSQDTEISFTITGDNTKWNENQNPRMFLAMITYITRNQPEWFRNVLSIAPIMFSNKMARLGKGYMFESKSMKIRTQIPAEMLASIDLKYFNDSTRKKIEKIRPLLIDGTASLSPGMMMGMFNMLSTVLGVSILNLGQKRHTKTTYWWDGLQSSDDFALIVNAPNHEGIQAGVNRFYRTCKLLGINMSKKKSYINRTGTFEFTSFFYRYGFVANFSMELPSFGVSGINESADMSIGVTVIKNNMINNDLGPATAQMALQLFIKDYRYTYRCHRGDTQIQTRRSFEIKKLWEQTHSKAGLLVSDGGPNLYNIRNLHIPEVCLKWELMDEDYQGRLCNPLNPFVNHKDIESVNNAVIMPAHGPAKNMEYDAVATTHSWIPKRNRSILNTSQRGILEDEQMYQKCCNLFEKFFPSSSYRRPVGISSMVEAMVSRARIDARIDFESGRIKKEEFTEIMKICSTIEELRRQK
UniProt P03427: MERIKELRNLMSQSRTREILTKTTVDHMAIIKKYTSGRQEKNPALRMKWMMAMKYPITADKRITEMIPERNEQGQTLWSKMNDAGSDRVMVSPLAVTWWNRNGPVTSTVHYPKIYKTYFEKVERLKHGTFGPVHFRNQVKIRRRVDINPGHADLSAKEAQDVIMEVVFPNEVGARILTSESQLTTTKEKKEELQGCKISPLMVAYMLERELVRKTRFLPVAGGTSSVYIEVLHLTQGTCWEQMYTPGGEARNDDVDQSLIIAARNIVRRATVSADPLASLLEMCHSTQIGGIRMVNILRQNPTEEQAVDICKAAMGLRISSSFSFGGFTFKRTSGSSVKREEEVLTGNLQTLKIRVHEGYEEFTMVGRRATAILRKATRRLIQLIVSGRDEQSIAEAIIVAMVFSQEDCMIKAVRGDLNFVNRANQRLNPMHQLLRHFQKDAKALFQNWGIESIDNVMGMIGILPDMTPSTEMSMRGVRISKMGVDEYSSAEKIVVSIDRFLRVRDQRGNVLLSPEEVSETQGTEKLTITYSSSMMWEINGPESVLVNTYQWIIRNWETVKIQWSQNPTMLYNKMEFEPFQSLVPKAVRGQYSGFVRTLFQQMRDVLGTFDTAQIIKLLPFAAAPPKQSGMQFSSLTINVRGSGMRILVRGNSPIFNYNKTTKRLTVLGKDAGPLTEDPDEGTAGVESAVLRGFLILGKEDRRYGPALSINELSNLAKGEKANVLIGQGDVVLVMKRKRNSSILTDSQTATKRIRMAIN

Biological target: HA-GPS2 stably expressed in A549 cells (A549^GPS2+) (human) (UniProt Q13227)
Test: co-IP

Substance | binding
NP of A/WSN/33 (H1N1) in infected cells (from UniProt P15682 1-498) | binds
PB1 of A/WSN/33 (H1N1) in infected cells (from UniProt P03430 1-757) | binds
PB2 of A/WSN/33 (H1N1) in infected cells (from UniProt P03427 1-759) | binds
